Assay results reported in the M2OR odorant receptor database.
The entries are a selection whose mix differs from that of the whole data set. Calls are pooled over several reports, among them a noisy single-well screen. Some of the results follow.

Key:
Settings in all cases: stereoisomer not certain
OR52N5 (Homo sapiens) = molecular target: T1, OR52N5 (Homo sapiens) (UniProt Q8NH56)
T1 sequence (whole entry): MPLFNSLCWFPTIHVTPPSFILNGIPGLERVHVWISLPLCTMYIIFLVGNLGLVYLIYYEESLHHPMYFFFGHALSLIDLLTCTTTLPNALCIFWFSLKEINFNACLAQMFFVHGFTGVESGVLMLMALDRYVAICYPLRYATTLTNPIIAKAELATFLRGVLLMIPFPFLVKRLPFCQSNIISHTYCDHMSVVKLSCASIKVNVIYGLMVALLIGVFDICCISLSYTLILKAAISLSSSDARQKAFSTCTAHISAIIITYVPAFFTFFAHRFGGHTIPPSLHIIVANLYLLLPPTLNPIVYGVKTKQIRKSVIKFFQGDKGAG
In short: (§1)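 Values were gathered from published papers (main text and supplementary material), with extra details requested from the original authors when needed, and checked for typos and inconsistencies. Each receptor–molecule pair is called responsive (active) if the original authors judged the measured signal statistically different from baseline, and non-responsive (inactive) otherwise. Assay methods varied by source, often transient mammalian cell-line luciferase assays. Recorded details include cell line, G-protein, co-transfected protein and tags.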

OR56A1 (Homo sapiens) = molecular target: T2, OR56A1 (Homo sapiens) (UniProt Q8NGH5)
T2 sequence (whole entry): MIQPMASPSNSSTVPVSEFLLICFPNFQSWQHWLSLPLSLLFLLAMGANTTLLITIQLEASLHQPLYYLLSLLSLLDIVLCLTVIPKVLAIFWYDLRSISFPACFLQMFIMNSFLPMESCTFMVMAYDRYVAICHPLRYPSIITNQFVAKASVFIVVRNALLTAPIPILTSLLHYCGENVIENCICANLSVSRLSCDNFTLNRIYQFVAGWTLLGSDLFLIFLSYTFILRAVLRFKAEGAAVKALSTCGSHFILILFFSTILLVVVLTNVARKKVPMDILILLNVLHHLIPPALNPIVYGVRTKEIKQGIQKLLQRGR
In short: as §1

OR56A4 (Homo sapiens) = molecular target: T3, OR56A4 (Homo sapiens) (UniProt Q8NGH8)
T3 sequence (whole entry): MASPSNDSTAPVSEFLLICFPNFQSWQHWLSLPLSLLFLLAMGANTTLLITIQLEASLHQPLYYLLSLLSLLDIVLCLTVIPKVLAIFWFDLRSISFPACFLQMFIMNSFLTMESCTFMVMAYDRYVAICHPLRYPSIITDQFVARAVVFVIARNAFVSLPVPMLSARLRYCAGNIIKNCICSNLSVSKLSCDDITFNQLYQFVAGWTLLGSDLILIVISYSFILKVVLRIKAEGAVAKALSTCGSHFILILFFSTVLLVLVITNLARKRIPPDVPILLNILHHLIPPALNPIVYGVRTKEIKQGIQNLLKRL
In short: as §1

OR56A5 (Homo sapiens) = molecular target: T4, OR56A5 (Homo sapiens) (UniProt P0C7T3)
T4 sequence (whole entry): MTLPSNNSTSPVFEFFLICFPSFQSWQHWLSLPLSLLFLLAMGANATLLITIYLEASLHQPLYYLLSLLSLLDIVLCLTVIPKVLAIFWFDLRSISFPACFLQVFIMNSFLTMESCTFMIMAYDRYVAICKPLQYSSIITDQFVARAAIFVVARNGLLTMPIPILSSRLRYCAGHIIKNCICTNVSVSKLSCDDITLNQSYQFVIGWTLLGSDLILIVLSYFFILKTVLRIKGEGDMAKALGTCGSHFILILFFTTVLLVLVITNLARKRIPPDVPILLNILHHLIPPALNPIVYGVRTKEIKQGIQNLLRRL
In short: as §1

OR5A1 [1] = test system: T5, OR5A1
T5 sequence (whole entry): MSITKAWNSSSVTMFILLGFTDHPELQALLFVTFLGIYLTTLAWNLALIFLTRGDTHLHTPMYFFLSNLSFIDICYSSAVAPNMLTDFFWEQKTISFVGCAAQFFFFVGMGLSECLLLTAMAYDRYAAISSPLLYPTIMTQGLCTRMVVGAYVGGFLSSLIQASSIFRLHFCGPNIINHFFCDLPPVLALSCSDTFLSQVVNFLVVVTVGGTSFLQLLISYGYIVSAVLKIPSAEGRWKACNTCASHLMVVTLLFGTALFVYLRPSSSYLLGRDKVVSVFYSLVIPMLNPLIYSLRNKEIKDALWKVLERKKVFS
In short: as §1

OR5A1 [2] = test system: T6, OR5A1; remark: listed apart in the source
T6 sequence (whole entry): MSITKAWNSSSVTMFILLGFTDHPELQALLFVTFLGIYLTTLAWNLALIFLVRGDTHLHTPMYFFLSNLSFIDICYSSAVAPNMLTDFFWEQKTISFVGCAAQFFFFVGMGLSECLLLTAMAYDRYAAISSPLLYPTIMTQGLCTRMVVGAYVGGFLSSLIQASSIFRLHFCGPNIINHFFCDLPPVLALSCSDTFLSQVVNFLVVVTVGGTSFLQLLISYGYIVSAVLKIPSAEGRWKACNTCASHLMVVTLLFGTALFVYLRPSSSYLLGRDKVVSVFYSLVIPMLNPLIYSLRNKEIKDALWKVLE
In short: as §1

OR5A1 [3] = test system: T7, OR5A1; remark: listed apart in the source
T7 sequence (whole entry): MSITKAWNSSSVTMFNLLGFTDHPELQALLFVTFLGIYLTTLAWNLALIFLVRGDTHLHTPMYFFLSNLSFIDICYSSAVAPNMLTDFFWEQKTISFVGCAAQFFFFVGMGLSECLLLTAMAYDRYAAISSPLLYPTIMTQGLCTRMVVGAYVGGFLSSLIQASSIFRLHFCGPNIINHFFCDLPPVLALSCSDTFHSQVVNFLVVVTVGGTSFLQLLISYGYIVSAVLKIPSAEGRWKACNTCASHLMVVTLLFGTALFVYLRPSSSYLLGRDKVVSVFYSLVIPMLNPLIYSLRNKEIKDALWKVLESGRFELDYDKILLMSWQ
In short: as §1

OR5A2 (Homo sapiens) = molecular target: T8, OR5A2 (Homo sapiens) (UniProt Q8NGI9)
T8 sequence (whole entry): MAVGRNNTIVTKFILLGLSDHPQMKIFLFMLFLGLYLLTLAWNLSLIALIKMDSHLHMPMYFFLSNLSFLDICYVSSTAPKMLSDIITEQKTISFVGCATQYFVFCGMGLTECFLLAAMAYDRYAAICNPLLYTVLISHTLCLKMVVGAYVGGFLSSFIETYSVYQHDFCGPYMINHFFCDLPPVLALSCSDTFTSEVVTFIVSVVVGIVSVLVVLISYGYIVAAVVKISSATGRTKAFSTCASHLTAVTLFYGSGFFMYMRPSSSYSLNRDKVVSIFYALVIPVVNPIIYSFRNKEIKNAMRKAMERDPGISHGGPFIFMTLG
In short: as §1

OR5AK2 (Homo sapiens) = molecular target: T9, OR5AK2 (Homo sapiens) (UniProt Q8NH90)
T9 sequence (whole entry): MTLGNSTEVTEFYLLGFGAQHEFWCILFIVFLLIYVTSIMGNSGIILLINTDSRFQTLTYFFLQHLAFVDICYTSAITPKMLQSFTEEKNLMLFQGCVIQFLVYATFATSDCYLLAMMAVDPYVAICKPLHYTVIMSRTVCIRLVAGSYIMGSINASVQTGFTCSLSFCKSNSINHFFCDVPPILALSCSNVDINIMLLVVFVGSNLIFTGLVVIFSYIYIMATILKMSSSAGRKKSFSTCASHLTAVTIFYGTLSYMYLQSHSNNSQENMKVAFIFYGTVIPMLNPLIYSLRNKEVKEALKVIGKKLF
In short: as §1

Structure (SMILES) | odorant receptor agonist call (OR52N5 (Homo sapiens)) | odorant receptor agonist call (OR56A1 (Homo sapiens)) | odorant receptor agonist call (OR56A4 (Homo sapiens)) | odorant receptor agonist call (OR56A5 (Homo sapiens)) | odorant receptor agonist call (OR5A1 [1]) | odorant receptor agonist call (OR5A1 [2]) | odorant receptor agonist call (OR5A1 [3]) | odorant receptor agonist call (OR5A2 (Homo sapiens)) | odorant receptor agonist call (OR5AK2 (Homo sapiens))
CC12CCC(C1)C(C)(C)C2=O (configuration not stated) | inactive | inactive | inactive | inactive | inactive | inactive | inactive | inactive | inactive
C=CCc1ccc(OC)c(OC)c1 | inactive | inactive | inactive | inactive | inactive | inactive | inactive | inactive | inactive
CCCCCCOC(=O)CCC | inactive | inactive | inactive | inactive | inactive | inactive | inactive | inactive | inactive
C=CCSCC=C | inactive | inactive | inactive | inactive | inactive | inactive | inactive | inactive | inactive
C=C(C)C1CCC2=CC(=O)CC(C)C2(C)C1 (configuration not stated) | active |  | inactive | active |  |  |  |  | 
COc1cc(C)ccc1O | inactive | inactive | inactive | inactive | inactive | inactive | inactive | inactive | inactive
COc1ccccc1O | inactive | inactive | inactive | inactive | inactive | inactive | inactive | inactive | inactive
